Reference: publication PMC5337621

Protein sequences, listed by entry. Tags and fused reporters are not part of them.
UniProt O14965: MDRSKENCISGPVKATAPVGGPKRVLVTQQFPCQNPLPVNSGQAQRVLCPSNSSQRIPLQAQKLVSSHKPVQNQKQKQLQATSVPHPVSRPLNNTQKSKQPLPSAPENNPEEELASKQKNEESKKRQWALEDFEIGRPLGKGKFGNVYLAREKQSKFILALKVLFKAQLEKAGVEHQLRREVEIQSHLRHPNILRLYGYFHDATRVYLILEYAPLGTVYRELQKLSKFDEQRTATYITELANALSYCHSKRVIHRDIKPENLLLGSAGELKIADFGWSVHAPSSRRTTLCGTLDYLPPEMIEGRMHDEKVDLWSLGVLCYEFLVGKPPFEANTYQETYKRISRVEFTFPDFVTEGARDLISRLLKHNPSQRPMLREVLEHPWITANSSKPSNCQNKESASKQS

Target: GST-AURKA (human) (UniProt O14965)
Assay: affinity purification with mass spectrometry; purified GST and GST-AURKA incubated with nuclear and cytoplasmic fractions from AGS cells (500 ug nuclear extract), in vitro GST pulldown, in-gel digestion and recovery of peptides; only the target purified

Row | binding | Binder
1 | binds | Forkhead box protein P1 (FOXP1) (protein, UniProt Q9H334 1-677) MMQESGTETKSNGSAIQNGSGGSNHLLECGGLREGRSNGETPAVDIGAADLAHAQQQQQQALQVARQLLLQQQQQQQVSGLKSPKRNDKQPALQVPVSVAMMTPQVITPQQMQQILQQQVLSPQQLQVLLQQQQALMLQQQQLQEFYKKQQEQLQLQLLQQQHAGKQPKEQQQVATQQLAFQQQLLQMQQLQQQHLLSLQRQGLLTIQPGQPALPLQPLAQGMIPTELQQLWKEVTSAHTAEETTGNNHSSLDLTTTCVSSSAPSKTSLIMNPHASTNGQLSVHTPKRESLSHEEHPHSHPLYGHGVCKWPGCEAVCEDFQSFLKHLNSEHALDDRSTAQCRVQMQVVQQLELQLAKDKERLQAMMTHLHVKSTEPKAAPQPLNLVSSVTLSKSASEASPQSLPHTPTTPTAPLTPVTQGPSVITTTSMHTVGPIRRRYSDKYNVPISSADIAQNQEFYKNAEVRPPFTYASLIRQAILESPEKQLTLNEIYNWFTRMFAYFRRNAATWKNAVRHNLSLHKCFVRVENVKGAVWTVDEVEFQKRRPQKISGNPSLIKNMQSSHAYCTPLNAALQASMAENSIPLYTTASMGNPTLGNLASAIREELNGAMEHTNSNESDSSPGRSPMQAVHPVHVKEEPLDPEEAEGPLSLVTTANHSPDFDHDRDYEDEPVNEDME
2 | binds | SOX30 (protein, UniProt O94993 1-753) MERARPEPPPQPRPLRPAPPPLPVEGTSFWAAAMEPPPSSPTLSAAASATLASSCGEAVASGLQPAVRRLLQVKPEQVLLLPQPQAQNEEAAASSAQARLLQFRPDLRLLQPPTASDGATSRPELHPVQPLALHVKAKKQKLGPSLDQSVGPRGAVETGPRASRVVKLEGPGPALGYFRGDEKGKLEAEEVMRDSMQGGAGKSPAAIREGVIKTEEPERLLEDCRLGAEPASNGLVHGSAEVILAPTSGAFGPHQQDLRIPLTLHTVPPGARIQFQGAPPSELIRLTKVPLTPVPTKMQSLLEPSVKIETKDVPLTVLPSDAGIPDTPFSKDRNGHVKRPMNAFMVWARIHRPALAKANPAANNAEISVQLGLEWNKLSEEQKKPYYDEAQKIKEKHREEFPGWVYQPRPGKRKRFPLSVSNVFSGTTQNIISTNPTTVYPYRSPTYSVVIPSLQNPITHPVGETSPAIQLPTPAVQSPSPVTLFQPSVSSAAQVAVQDPSLPVYPALPPQRFTGPSQTDTHQLHSEATHTVKQPTPVSLESANRISSSASTAHARFATSTIQPPREYSSVSPCPRSAPIPQASPIPHPHVYQPPPLGHPATLFGTPPRFSFHHPYFLPGPHYFPSSTCPYSRPPFGYGNFPSSMPECLSYYEDRYPKHEGIFSTLNRDYSFRDYSSECTHSENSRSCENMNGTSYYNSHSHSGEENLNPVPQLDIGTLENVFTAPTSTPSSIQQVNVTDSDEEEEEKVLRDL

Results are given in words; binding and its absence hold for the method and conditions named. Binding seen in cells or lysates may run through a third protein. A yes stands for co-enrichment or nearness to the bait. Other partners may have been found.
